Assay results published in US6034058A (priority 1998, dated 2000).

Test: general procedure: solution-phase peptide synthesis; DCC (with NMM or DMAP)

Row | Substance | step yield (coupling step) | further results
1 | bis-[(benzyloxycarbonyl)glutaminyl]-L-[Alaninyl^9 ]-didemnin B | 20% | –
2 | N-Benzyloxycarbonyl-L-glutaminyl-didemnin A | 65% | –
3 | didemnin M | – | step yield (late stage modification step): 90%
4 | N-Benzyloxycarbonyl-L-glutaminyl-L-[alaninyl^9 ]didemnin B | 62% | –
5 | L-glutaminyl-L-alaninyl-didemnin A | – | step yield (late stage modification step, cyclic, sequence written open): 87%
6 | N-Benzyloxycarbonyl-L-glutaminyl-L-alaninyl-didemnin A | 60% | –
